From article PMC11489178
Results are given in words; binding and its absence hold for the method and conditions named. In cells and extracts the contact can be indirect. These calls come from enrichment with a bait or labelling near it, and not all partners need be listed.

Target: HSPD1 (endogenous) (human (endogenous in MNNG/HOS)), P10809
Assay: affinity purification with mass spectrometry; co-IP with antibodies against HSPD1 or IgG (control), LC-MS/MS; cells not stated in the main text
Conditions: remark: other sources report otherwise

B1: ATP5A1 (endogenous), P25705 44-553 (protein)
chain: QKTGTAEMSSILEERILGADTSVDLEETGRVLSIGDGIARVHGLRNVQAEEMVEFSSGLKGMSLNLEPDNVGVVVFGNDKLIKEGDIVKRTGAIVDVPVGEELLGRVVDALGNAIDGKGPIGSKTRRRVGLKAPGIIPRISVREPMQTGIKAVDSLVPIGRGQRELIIGDRQTGKTSIAIDTIINQKRFNDGSDEKKKLYCIYVAIGQKRSTVAQLVKRLTDADAMKYTIVVSATASDAAPLQYLAPYSGCSMGEYFRDNGKHALIIYDDLSKQAVAYRQMSLLLRRPPGREAYPGDVFYLHSRLLERAAKMNDAFGGGSLTALPVIETQAGDVSAYIPTNVISITDGQIFLETELFYKGIRPAINVGLSVSRVGSAAQTRAMKQVAGTMKLELAQYREVAAFAQFGSDLDAATQQLLSRGVRLTELLKQGQYSPMAIEEQVAVIYAGVRGYLDKLEPSKITKFENAFLSHVVSQHQALLGTIRADGKISEQSDAKLKEIVTNFLAGFEA
**Q.** Which binding does the source give for B1 here?
**A.** The binding was “binds”.
